Where a name gives a salt, the structure may show the parent alone. ± gives the standard deviation of the averaged measurements. The list shows a part of the results. Many values rest on one well or one pass, so single values are uncertain.
System: RAW 264.7
Assay: HMGB1-induced TNF-alpha production relative to HMGB1-stimulated control; higher = more TNF-alpha secretion (less inhibition)
Settings: stimulus: HMGB1 5 ug/ml, 18 h
[1] = compound concentration: 1 ug/ml

| SMILES | HMGB1-induced TNF-alpha production (compound concentration: 3 uM) | HMGB1-induced TNF-alpha production [1] |
| --- | --- | --- |
| CC(=O)Nc1ccc(O)cc1 | 78.9% |  |
| CC(=O)Nc1ccc(O)cc1 [Acetaminophen] | 106% |  |
| CC(=O)Oc1c(C)c(C)c2c(c1C)CCC(C)(CCCC(C)CCCC(C)CCCC(C)C)O2 (stereo not drawn) [alpha-TOCHOPHERYL ACETATE] | 82.3% |  |
| Nc1nc(SCc2ccc([N+](=O)[O-])cc2)c2ncn([C@@H]3O[C@H](CO)[C@H](O)C3O)c2n1 (stereo partly drawn) [S-(4-Nitrobenzyl)-6-thioguanosine] | 83.4% |  |
| COc1cc(C(=O)NC2CCCNC2)cc(OC)c1OC (stereo unspecified) | 139% |  |
| C[C@]12CC[C@@H]3c4ccc(O)cc4CC[C@H]3[C@@H]1CCC2=O [Estrone] | 77 ± 2% |  |
| C[C@]12CC[C@@H]3c4ccc(O)cc4CC[C@H]3[C@@H]1CCC2=O | 81.5% |  |
| CCCCCCCC/C=C\CCCCCCCC(=O)NCCc1ccc(O)c(O)c1 [N-Oleoyldopamine] | 158% |  |
| CN(C)[C@@H]1C(O)=C(C(N)=O)C(=O)[C@@]2(O)C(O)=C3C(=O)c4c(O)ccc(Cl)c4[C@@](C)(O)[C@H]3C[C@@H]12 [Chlortetracycline hydrochloride] | 68.7% |  |
| CN(C)[C@@H]1C(O)=C(C(N)=O)C(=O)[C@@]2(O)C(O)=C3C(=O)c4c(O)ccc(Cl)c4[C@@](C)(O)[C@H]3C[C@@H]12 | 86.9 ± 11% |  |
| COc1ccccc1-c1cc(=O)c2cc(O)ccc2o1 |  | 70.1% |
| O=C1OC2(c3ccc(O)cc3Oc3cc(O)ccc32)c2ccccc21 | 96.6% |  |
| CC(=O)N(CC(C)C(=O)O)c1c(I)cc(I)c(N)c1I (stereo unspecified) [Iocetamic acid] | 100% |  |
| CC(=O)OCC1=C(C(=O)O)N2C(=O)[C@@H](NC(=O)CSc3ccncc3)[C@H]2SC1 | 86.7% |  |
| CC(=O)OCC1=C(C(=O)O)N2C(=O)[C@@H](NC(=O)CSc3ccncc3)[C@H]2SC1 [Cephapirin sodium salt] |  | 73.3% |
| CC(C)=CCC/C(C)=C/COc1c2occc2cc2ccc(=O)oc12 [Xanthotoxol geranyl ether] |  | 45.6% |
| COc1cnc(NS(=O)(=O)c2ccc(N)cc2)nc1 | 84.4% |  |
| COc1cnc(NS(=O)(=O)c2ccc(N)cc2)nc1 [Sulfameter] | 103% |  |
| CC(C)Cc1ccc(C(C)C(=O)O)cc1 (racemic) [(±)-Ibuprofen] | 103% |  |
| O=c1oc2c3c4c(cc2c2c1CCC2)CCCN4CCC3 [Coumarin 106] |  | 84.9% |
| O=C(O)CCC(=O)Nc1ccc(S(=O)(=O)Nc2nccs2)cc1 | 77.3% |  |
| O=C(O)CCC(=O)Nc1ccc(S(=O)(=O)Nc2nccs2)cc1 [Succinylsulfathiazole] | 95.7% |  |

| SMILES | HMGB1-induced TNF-alpha production (compound concentration: 3 uM) | HMGB1-induced TNF-alpha production [1] |
| --- | --- | --- |
| Cc1cccc(CN2CCN(C(c3ccccc3)c3ccc(Cl)cc3)CC2)c1 (stereo unspecified) [Meclozine dihydrochloride] | 75.7% |  |
| Cc1cccc(CN2CCN(C(c3ccccc3)c3ccc(Cl)cc3)CC2)c1 (stereo unspecified) | 71.2% |  |
| COc1ccccc1O [Guaiacol] | 91.5 ± 17% |  |
| CC1CNCCN1S(=O)(=O)c1cccc2cnccc12 (stereo unspecified) | 71.8% |  |
| CCCCC(C)(O)C/C=C/[C@H]1[C@H](O)CC(=O)[C@@H]1CCCCCCC(=O)OC (mixture of isomers) [Misoprostol] | 94.8 ± 25% |  |
| CNCCC(Oc1ccccc1OC)c1ccccc1 (stereo unspecified) [Nisoxetine] | 106% |  |
| CNCCC(Oc1ccccc1OC)c1ccccc1 (stereo unspecified) [Nisoxetine hydrochloride] | 104 ± 4.9% |  |
| O=NN(CCCl)C(=O)NC1CCCCC1 [Lomustine] | 76.6% |  |
| Cn1c(=O)ccn([C@@H]2O[C@H](CO)[C@@H](O)[C@H]2O)c1=O [3-Methyluridine] |  | 70.9% |
| CCOC(=O)C1=C[C@]2(CC)CCCN3CCc4c(n1c1ccccc41)[C@@H]32 [Vinpocetine] | 83.2 ± 23% |  |
| CC1CN(S(=O)(=O)c2cccc3cnccc23)CCN1 (stereo unspecified) | 107% |  |
| COc1ccc(-c2cc(=O)c3c(O)cc(O[C@@H]4O[C@H](CO[C@@H]5O[C@@H](C)[C@H](O)[C@@H](O)[C@H]5O)[C@@H](O)[C@H](O)[C@H]4O)cc3o2)cc1O | 80.4% |  |
| O=c1c2cc(O)c(O)cc2oc2cc(O)c([C@@H]3O[C@H](CO)[C@@H](O)[C@H](O)[C@H]3O)c(O)c12 [Mangiferin] |  | 78.9% |
| C=C1C[C@]23C[C@@]1(O)CC[C@H]2[C@@]12C=C[C@H](O)[C@@](C)(C(=O)O1)[C@H]2[C@@H]3C(=O)O [Gibberellic Acid] |  | 48.5% |
| c1ccc2[nH]c(-c3cscn3)nc2c1 [Tiabendazole] | 57.7% |  |
| c1ccc2[nH]c(-c3cscn3)nc2c1 | 89.7% |  |
| OC[C@@H](O)[C@@H](O[C@@H]1O[C@H](CO)[C@H](O)[C@H](O)[C@H]1O)[C@H](O)[C@@H](O)CO | 81.3% |  |
| CN1[C@@H](CC(=O)c2ccccc2)CCC[C@H]1C[C@H](O)c1ccccc1 [Lobeline] | 98% |  |
| CN1[C@@H](CC(=O)c2ccccc2)CCC[C@H]1C[C@H](O)c1ccccc1 [Lobeline hydrochloride] |  | 63% |
| CN1[C@@H](CC(=O)c2ccccc2)CCC[C@H]1C[C@H](O)c1ccccc1 [Lobeline alpha (-) hydrochoride] | 109% |  |
| CN1[C@@H](CC(=O)c2ccccc2)CCC[C@H]1C[C@H](O)c1ccccc1 [alpha-Lobeline hydrochloride] | 104% |  |
| CN1[C@@H](CC(=O)c2ccccc2)CCC[C@H]1C[C@H](O)c1ccccc1 | 94.1 ± 23% |  |

| SMILES | HMGB1-induced TNF-alpha production (compound concentration: 3 uM) | HMGB1-induced TNF-alpha production [1] |
| --- | --- | --- |
| CSc1nc(N)c2ncn([C@@H]3O[C@H](COP(=O)(O)OP(=O)(O)OP(=O)(O)O)[C@H](O)C3O)c2n1 (stereo partly specified) [2-Methylthioadenosine triphosphate tetrasodium] | 92.2% |  |
| CC(=O)C(C)=O [2,3-Butanedione] | 76% |  |
| COc1cc(C(O)C(=O)O)ccc1O (racemic) [(±)-Vanillylmandelic acid] | 88.9% |  |
| CC1CS(=O)(=O)CCN1/N=C/c1ccc([N+](=O)[O-])o1 (stereo unspecified) [Nifurtimox] | 99.9% |  |
| NC(=O)NC(=O)Cc1ccccc1 | 99% |  |
| O=C(O)Cc1sc(-c2ccccc2)nc1-c1ccc(Cl)cc1 [Fentiazac] | 85.6 ± 1.4% |  |
| OCc1cc(C(O)CNCCCCCCOCCCCc2ccccc2)ccc1O (stereo unspecified) [Salmeterol] | 51.4 ± 11% |  |
| OCc1cc(C(O)CNCCCCCCOCCCCc2ccccc2)ccc1O (stereo unspecified) [Salmeterol xinafoate] | 50.5% |  |
| C#CCN1C(C)=C(C(=O)OC)C(c2cccc([N+](=O)[O-])c2)C(C(=O)OCC)=C1C (stereo unspecified) | 100% |  |
| N=C(N)NCCC[C@H](N)C(=O)O [L-Arginine] | 120% |  |
| CNCCC(Oc1ccc(C(F)(F)F)cc1)c1ccccc1 (stereo unspecified) | 83.3% |  |
| CNCCC(Oc1ccc(C(F)(F)F)cc1)c1ccccc1 (stereo unspecified) [Fluoxetine hydrochloride] | 76.7 ± 26% |  |
| CNCCC(Oc1ccc(C(F)(F)F)cc1)c1ccccc1 (stereo unspecified) [Fluoxetine] | 71.5% |  |
| Cc1nc2n(c(=O)c1CCN1CCC(c3noc4cc(F)ccc34)CC1)CCCC2 | 96.3% |  |
| Cc1nc2n(c(=O)c1CCN1CCC(c3noc4cc(F)ccc34)CC1)CCCC2 [Risperidone] | 110 ± 26% |  |
| O=c1oc2ccccc2c(-c2ccccc2)c1-c1ccc(Cl)cc1Cl [3(2',4'-Dichlorophenyl)-4-phenylcoumarin] |  | 69.6% |
| CC(=O)Nc1ccc(CC(=O)O)cc1 | 107% |  |
| COc1cc2cc3c4c(cc(OC)c(OC)c4c2cc1OC)CCN3C [Dehydroglaucine] |  | 46.2% |
| Nc1ncnc2c1ncn2[C@@H]1O[C@H](COP(=O)(O)OP(=O)(O)OP(=O)(O)O)[C@@H](O)[C@H]1O |  | 66.6% |
| CCN1CC(CCN2CCOCC2)C(c2ccccc2)(c2ccccc2)C1=O (stereo unspecified) | 103% |  |
| N[C@@H](C(=O)N[C@@H]1C(=O)N2C(C(=O)O)=C(CSc3cn[nH]n3)CS[C@H]12)c1ccc(O)cc1 | 113% |  |
| COc1ccc(-c2cc(=O)c3ccc(O)cc3o2)cc1 |  | 82.2% |

Part of the list above, reformatted:
SMILES,HMGB1-induced TNF-alpha production (compound concentration: 3 uM),HMGB1-induced TNF-alpha production [1]
O=C(O)CCC(=O)Nc1ccc(S(=O)(=O)Nc2nccs2)cc1 [Succinylsulfathiazole],95.7%,
Cc1cccc(CN2CCN(C(c3ccccc3)c3ccc(Cl)cc3)CC2)c1 (stereo unspecified) [Meclozine dihydrochloride],75.7%,
Cc1cccc(CN2CCN(C(c3ccccc3)c3ccc(Cl)cc3)CC2)c1 (stereo unspecified),71.2%,
COc1ccccc1O [Guaiacol],91.5 ± 17%,
CC1CNCCN1S(=O)(=O)c1cccc2cnccc12 (stereo unspecified),71.8%,
CCCCC(C)(O)C/C=C/[C@H]1[C@H](O)CC(=O)[C@@H]1CCCCCCC(=O)OC (mixture of isomers) [Misoprostol],94.8 ± 25%,
CNCCC(Oc1ccccc1OC)c1ccccc1 (stereo unspecified) [Nisoxetine],106%,
CNCCC(Oc1ccccc1OC)c1ccccc1 (stereo unspecified) [Nisoxetine hydrochloride],104 ± 4.9%,
O=NN(CCCl)C(=O)NC1CCCCC1 [Lomustine],76.6%,
Cn1c(=O)ccn([C@@H]2O[C@H](CO)[C@@H](O)[C@H]2O)c1=O [3-Methyluridine],,70.9%
CCOC(=O)C1=C[C@]2(CC)CCCN3CCc4c(n1c1ccccc41)[C@@H]32 [Vinpocetine],83.2 ± 23%,
CC1CN(S(=O)(=O)c2cccc3cnccc23)CCN1 (stereo unspecified),107%,
COc1ccc(-c2cc(=O)c3c(O)cc(O[C@@H]4O[C@H](CO[C@@H]5O[C@@H](C)[C@H](O)[C@@H](O)[C@H]5O)[C@@H](O)[C@H](O)[C@H]4O)cc3o2)cc1O,80.4%,
O=c1c2cc(O)c(O)cc2oc2cc(O)c([C@@H]3O[C@H](CO)[C@@H](O)[C@H](O)[C@H]3O)c(O)c12 [Mangiferin],,78.9%
C=C1C[C@]23C[C@@]1(O)CC[C@H]2[C@@]12C=C[C@H](O)[C@@](C)(C(=O)O1)[C@H]2[C@@H]3C(=O)O [Gibberellic Acid],,48.5%

Next entries follow.

| SMILES | HMGB1-induced TNF-alpha production (compound concentration: 3 uM) | HMGB1-induced TNF-alpha production [1] |
| --- | --- | --- |
| CCCCNC(=O)NS(=O)(=O)c1ccc(C)cc1 [Tolbutamide] | 94.8 ± 8.5% |  |
| CCCCNC(=O)NS(=O)(=O)c1ccc(C)cc1 | 90.4% |  |
| COc1ccc(-c2oc3ccccc3c(=O)c2O)cc1OC |  | 80.4% |
| O=C(O)c1cc(-c2ccc(F)cc2F)ccc1O | 78.7% |  |
| O=C(O)c1cc(-c2ccc(F)cc2F)ccc1O [Diflunisal] | 77.7 ± 21% |  |
| CC(=O)[C@H]1CC[C@H]2[C@@H]3C[C@H](C)C4=CC(=O)CC[C@]4(C)[C@H]3[C@@H](O)C[C@]12C | 68.5% |  |
| CC(=O)[C@H]1CC[C@H]2[C@@H]3C[C@H](C)C4=CC(=O)CC[C@]4(C)[C@H]3[C@@H](O)C[C@]12C [Medrysone] | 62.7% |  |
| CCOC(=O)OC(C)OC1=C(C(=O)Nc2ccccn2)N(C)S(=O)(=O)c2ccccc21 (stereo unspecified) [Ampiroxicam] | 100% |  |
| CCOC(=O)OC(C)OC1=C(C(=O)Nc2ccccn2)N(C)S(=O)(=O)c2ccccc21 (stereo unspecified) | 90.2% |  |
| CCOc1ccccc1OCCN[C@H](C)Cc1ccc(OC)c(S(N)(=O)=O)c1 [Tamsulosin] | 102% |  |
| CCCCCCCCCCC/C=C\C(C)(C)/C=C\CCCC(=O)O [7,7-Dimethyl-(5Z,8Z)-eicosadienoic acid] | 91.7% |  |
| CCCCCCCCCCCCC[N+](C)(C)Cc1ccccc1 | 59.2 ± 22% |  |
| O=S(=O)(O)CCS | 91.6% |  |
| O=S(=O)(O)CCS [Mesna] | 104% |  |
| CCn1cc(C(=O)O)c(=O)c2cnc(N3CCCC3)nc21 | 85.9% |  |
| CCn1cc(C(=O)O)c(=O)c2cnc(N3CCCC3)nc21 [Piromidic acid] | 127% |  |
| Cc1cc2c(cc1Cl)N(C(=O)Nc1cccc3ncccc13)CC2 | 101% |  |
| CC(C)Nc1ncccn1 | 79% |  |
| CC(C)(C)NC[C@H](O)c1ccc(O)c(CO)c1 | 107% |  |
| Nc1nc(=O)c2c([nH]1)NC[C@@H](CNc1ccc(C(=O)N[C@@H](CCC(=O)O)C(=O)O)cc1)N2C=O [Folinic acid calcium salt] | 91.3% |  |

From the supplement of paper PMC3682954
